# Screening data

Data taken from PubChem BioAssay AID1053133, deposited by Broad Institute (2014).

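Plate-reader measure of the Venus reporter marking one vaccinia stage in infected cells (the cell line is not named here); read time unknown.
The test concentration is not given here.
Percent change in Venus reporter signal; lower (more negative) values mean stronger inhibition of that viral stage.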

Values are in %.
The controls that fix the scale are not given here.
Common to all entries: measured here: Venus reporter, other viral stage.
Part of the compounds only, not a random draw; the main read-out is not listed here.

SMILES	activity change (Venus) (%)
C[C@H](CO)N1C[C@H](C)[C@@H](CN(C)S(=O)(=O)c2ccccc2)Oc2cc(-c3cccc(F)c3)ccc2S1(=O)=O	-29.37
C[C@@H]1CCCCO[C@H](CN(C)Cc2ccccc2)[C@H](C)CN([C@@H](C)CO)C(=O)c2cc(NS(=O)(=O)c3ccc(F)cc3)ccc2O1	-57.66
Cc1cccc(-c2ccc([C@H]3[C@H](CO)N4CCCCN(S(=O)(=O)c5cccc(C)c5)C[C@@H]34)cc2)c1	-37.73
Cc1noc(C)c1S(=O)(=O)Nc1ccc2c(c1)C(=O)N([C@@H](C)CO)C[C@H](C)[C@H](CN(C)Cc1ccc(C(F)(F)F)cc1)OCCCC[C@@H](C)O2	-51.74
C[C@H]1CN([C@@H](C)CO)C(=O)c2c(c3ccccc3n2C)-c2ccccc2CO[C@@H]1CN(C)Cc1ccc(Oc2ccccc2)cc1	-29
C[C@@H]1CN([C@@H](C)CO)C(=O)c2cccc(NC(=O)C3CCOCC3)c2O[C@@H]1CN(C)Cc1ccc(Cl)c(Cl)c1	-29.93
C[C@H]1CN([C@@H](C)CO)C(=O)c2cccc(NC(=O)Nc3ccc(C(F)(F)F)cc3)c2O[C@H]1CN(C)C(=O)NC1CCCCC1	-81.97
Cc1ccc(-c2ccc([C@@H]3[C@@H](CO)N4CCCCN(C(=O)Nc5cccc(F)c5)C[C@@H]34)cc2)cc1	-52.35
C[C@@H]1CN([C@@H](C)CO)C(=O)c2c(c3ccccc3n2C)-c2ccccc2CO[C@@H]1CN(C)Cc1cccc(O)c1	-73.63
COc1ccc(-c2ccc(C3[C@@H]4CN(C(=O)Nc5cccc(F)c5)C[C@H]3N4)cc2)cc1 (stereo partly specified)	-94.41
CC(C)CC#Cc1ccc2c(c1)O[C@@H](CN(C)C(=O)NC1CCCC1)[C@H](C)CN([C@@H](C)CO)S2(=O)=O	-51.35
C[C@H](CO)N1C[C@H](C)[C@@H](CN(C)C(=O)Cc2ccccc2)OCCCC[C@H](C)Oc2ccc(NS(=O)(=O)c3ccc(Cl)cc3)cc2C1=O	-38.6
C[C@H]1CCCCO[C@H](CN(C)Cc2ccc3c(c2)OCO3)[C@@H](C)CN([C@@H](C)CO)C(=O)c2cc(N(C)C)ccc2O1	-23.92
CO[C@@H]1CN(C)C(=O)c2cc(NC(=O)C3CCC3)ccc2OC[C@@H](C)N(C(=O)Nc2ccc(C(F)(F)F)cc2)C[C@H]1C	-46.08
C[C@H](CO)N1C[C@H](C)[C@H](CN(C)Cc2ccc(Cl)c(Cl)c2)Oc2c(NC(=O)Nc3ccccc3)cccc2C1=O	-44.97
C[C@H](C(=O)N(C)C[C@@H]1OCc2ccccc2-c2c(n(C)c3ccccc23)C(=O)N([C@@H](C)CO)C[C@H]1C)c1ccccc1	-37.46
C[C@H](CO)N1C[C@H](C)[C@H](CN(C)Cc2ccc(C(F)(F)F)cc2)OCCCC[C@H](C)Oc2ccc(NC(=O)CCCN(C)C)cc2C1=O	-80.99
C[C@@H]1CN([C@@H](C)CO)C(=O)c2cccc(NS(=O)(=O)c3ccc(F)cc3)c2O[C@@H]1CN(C)Cc1ccc(C(=O)Nc2ccccc2N)cc1	-31.2
COc1cccc(-c2ccc3c(c2)O[C@@H](CN(C)C(=O)c2ccccc2F)[C@@H](C)CN([C@H](C)CO)S3(=O)=O)c1	-24.45
COc1ccc(CN(C)C[C@H]2OCCCC[C@H](C)Oc3ccc(NS(=O)(=O)c4ccccc4)cc3C(=O)N([C@@H](C)CO)C[C@H]2C)cc1	-42.21
O=C(c1cccnc1)N1CCCCN2[C@@H](CO)[C@@H](c3ccc(C#Cc4ccccc4)cc3)[C@@H]2C1	-50.25
C[C@H](CO)N1C[C@H](C)[C@@H](CN(C)Cc2ccc(-c3ccccc3)cc2)Oc2ccc(NS(=O)(=O)c3cccs3)cc2CC1=O	-57.6
CC(C)C#Cc1ccc2c(c1)O[C@H](CN(C)Cc1ccccn1)[C@@H](C)CN([C@H](C)CO)S2(=O)=O	-29.5
C[C@H](CO)N1C[C@H](C)[C@H](CN(C)CC2CC2)OCCCC[C@H](C)Oc2ccc(NS(=O)(=O)c3ccc(Cl)cc3)cc2C1=O	-35.4
O=C(c1ccc(F)cc1)N1CC(=O)N2[C@H](CO)[C@H](c3ccc(C#CC4CCCC4)cc3)[C@H]2C1	-47.68
COc1cccc(NC(=O)N2CC(=O)N3[C@@H](CO)[C@H](c4ccc(C#CCC5CCCC5)cc4)[C@@H]3C2)c1	-30.07
CS(=O)(=O)N[C@@H]1C[C@@H]2O[C@@H](CO)CC[C@@H]2O[C@@H]1CCc1ccc(/C=C/c2ccccc2)cc1	-33.85
C[C@@H]1CN([C@@H](C)CO)S(=O)(=O)c2ccc(C#CCC3CCCC3)cc2O[C@H]1CN(C)C(=O)c1ccccn1	-34.31
C[C@@H]1CN([C@@H](C)CO)C(=O)c2cc(C3=CCCC3)cnc2O[C@@H]1CN(C)C(=O)Nc1ccc(C(F)(F)F)cc1	-30.55
CN(C)C(=O)c1ccc(-c2ccc3c(c2)[C@H]2[C@H](CCN2C(=O)C2CCCCC2)[C@@H](CO)N3C)cc1	-46.49
OC[C@H]1[C@H](c2ccc(-c3ccc(F)cc3)cc2)[C@@H]2CN(CCC(F)(F)F)CCCCN12	-83.51
C[C@@H]1CN([C@H](C)CO)C(=O)c2cccc(NC(=O)Nc3ccc(C(F)(F)F)cc3)c2O[C@@H]1CN(C)C(=O)Nc1cccc2ccccc12	-50.58
C[C@H]1CN([C@@H](C)CO)C(=O)c2cc(C#Cc3ccccc3F)cnc2O[C@@H]1CN(C)C(=O)c1ccc2c(c1)OCO2	-42.11
O=C(NC1CCCC1)N1CCCCN2[C@H](CO)[C@H](c3ccc(-c4ccccc4)cc3)[C@H]2C1	-64.45
CC(C)CC#Cc1ccc2c(c1)O[C@H](CN(C)Cc1ccncc1)[C@@H](C)CN([C@@H](C)CO)S2(=O)=O	-48.06
COc1ccc2c3c(n(C)c2c1)[C@H](CO)NCC31CN(Cc2ccc(-c3ccccn3)cc2)C1	-39.36
COc1ccc(C#Cc2ccc([C@H]3[C@@H](CO)N4CCCCN(C)C[C@H]34)cc2)cc1	-70.31
C[C@@H]1CN([C@@H](C)CO)S(=O)(=O)c2ccc(C3=CCCCC3)cc2O[C@@H]1CN(C)Cc1ccccc1F	-88.54
COc1ccccc1NC(=O)N1CCCCN2[C@@H](CO)[C@H](c3ccc(-c4cccc(F)c4)cc3)[C@@H]2C1	-59.06
Cc1ccc(-c2ccc([C@@H]3[C@H](CO)N4CCCCN(S(=O)(=O)c5ccccc5C)C[C@@H]34)cc2)cc1	-57.31
C[C@H]1CN([C@@H](C)CO)C(=O)c2c(c3ccccc3n2C)-c2ccccc2CO[C@H]1CN(C)C(=O)Oc1ccccc1	-29.49
COc1ccc(CN(C)C[C@@H]2OCCCC[C@@H](C)Oc3ccc(NC(=O)Nc4ccc(F)cc4)cc3C(=O)N([C@@H](C)CO)C[C@@H]2C)cc1	-34.57
CCC(=O)N1CC2(CN(Cc3ccc(Cl)cc3)C2)c2c(n(C)c3cc(OC)ccc23)[C@@H]1CO	-56.81
COc1ccc(NC(=O)N2CC(=O)N3[C@H](C2)[C@H](c2ccc(-c4ccc(C)cc4)cc2)[C@@H]3CO)cc1	-28.78
COc1cccc(S(=O)(=O)N(C)C[C@@H]2Oc3ncc(C#Cc4ccc(F)cc4)cc3C(=O)N([C@H](C)CO)C[C@@H]2C)c1	-34.4
Cc1ccccc1S(=O)(=O)N1[C@@H](C#N)[C@@H](c2ccc(-c3ccc(F)cc3)cc2)[C@@H]1CO	-32.81
C[C@@H]1CCCCO[C@H](CN(C)Cc2ccc(C(F)(F)F)cc2)[C@@H](C)CN([C@H](C)CO)C(=O)c2cc(NS(=O)(=O)c3ccccc3)ccc2O1	-36.49
CC(C)C#Cc1ccc2c(c1)O[C@@H](CN(C)C(=O)c1ccccc1)[C@H](C)CN([C@H](C)CO)S2(=O)=O	-28.77
C[C@@H]1CN([C@@H](C)CO)S(=O)(=O)c2ccc(C#CC3CCCCC3)cc2O[C@@H]1CN(C)C	-58.49

For reference, 3 entries once more:

{"smiles": "CC(C)CC#Cc1ccc2c(c1)O[C@H](CN(C)Cc1ccncc1)[C@@H](C)CN([C@@H](C)CO)S2(=O)=O", "activity change (Venus) (%)": "-48.06"}
{"smiles": "C[C@@H]1CN([C@@H](C)CO)C(=O)c2c(c3ccccc3n2C)-c2ccccc2CO[C@@H]1CN(C)Cc1cccc(O)c1", "activity change (Venus) (%)": "-73.63"}
{"smiles": "Cc1ccccc1S(=O)(=O)N1[C@@H](C#N)[C@@H](c2ccc(-c3ccc(F)cc3)cc2)[C@@H]1CO", "activity change (Venus) (%)": "-32.81"}